From article PMC8196013
Results are given in words; binding and its absence hold for the method and conditions named. For some of these results: Binding seen in cells or lysates may run through a third protein. Some results given as binding are weak or reduced against the parent protein; the word gives no strength.

Protein sequences, listed by entry. Tags and fused reporters are not part of them. Lines headed by an entry give the natural chain unless they say otherwise; changes in a name come on top.
UniProt P0A6F5: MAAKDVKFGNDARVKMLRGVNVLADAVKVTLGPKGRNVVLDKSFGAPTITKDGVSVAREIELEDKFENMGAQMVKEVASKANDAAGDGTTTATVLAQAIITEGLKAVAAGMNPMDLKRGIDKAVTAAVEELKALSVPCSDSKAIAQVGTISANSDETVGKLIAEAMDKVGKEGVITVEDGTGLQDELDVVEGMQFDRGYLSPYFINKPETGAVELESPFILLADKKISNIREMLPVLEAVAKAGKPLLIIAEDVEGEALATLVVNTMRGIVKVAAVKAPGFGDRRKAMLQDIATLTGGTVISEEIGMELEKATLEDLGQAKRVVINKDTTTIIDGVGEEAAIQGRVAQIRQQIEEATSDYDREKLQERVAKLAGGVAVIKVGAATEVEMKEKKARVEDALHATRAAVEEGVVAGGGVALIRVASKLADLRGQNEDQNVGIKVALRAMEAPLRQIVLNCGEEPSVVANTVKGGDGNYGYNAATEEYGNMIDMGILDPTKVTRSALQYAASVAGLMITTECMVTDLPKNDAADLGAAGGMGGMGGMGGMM
UniProt P0AFG8: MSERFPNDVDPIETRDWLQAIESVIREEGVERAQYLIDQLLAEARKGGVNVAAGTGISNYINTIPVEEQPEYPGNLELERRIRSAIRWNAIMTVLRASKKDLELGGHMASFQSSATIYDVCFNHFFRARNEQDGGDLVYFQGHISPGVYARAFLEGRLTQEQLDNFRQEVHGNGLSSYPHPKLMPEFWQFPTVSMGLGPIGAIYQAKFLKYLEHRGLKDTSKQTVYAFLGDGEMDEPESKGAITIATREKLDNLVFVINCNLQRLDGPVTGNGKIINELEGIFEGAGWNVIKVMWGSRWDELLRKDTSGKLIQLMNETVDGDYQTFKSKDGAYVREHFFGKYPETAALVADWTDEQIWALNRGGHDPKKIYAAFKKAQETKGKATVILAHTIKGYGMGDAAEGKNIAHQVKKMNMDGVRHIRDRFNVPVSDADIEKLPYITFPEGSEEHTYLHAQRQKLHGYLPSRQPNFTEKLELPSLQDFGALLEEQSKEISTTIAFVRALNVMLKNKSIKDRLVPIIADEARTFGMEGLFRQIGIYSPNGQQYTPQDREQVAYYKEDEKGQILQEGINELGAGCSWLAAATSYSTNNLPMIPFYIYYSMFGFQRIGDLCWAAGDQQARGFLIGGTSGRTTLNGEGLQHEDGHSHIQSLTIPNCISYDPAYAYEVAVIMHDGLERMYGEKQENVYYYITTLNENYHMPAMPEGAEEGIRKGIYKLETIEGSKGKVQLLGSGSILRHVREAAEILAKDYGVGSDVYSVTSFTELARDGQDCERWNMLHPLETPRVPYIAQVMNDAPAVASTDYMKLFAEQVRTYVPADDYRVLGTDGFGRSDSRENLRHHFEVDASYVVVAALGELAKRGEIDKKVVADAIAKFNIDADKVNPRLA
UniProt P06959: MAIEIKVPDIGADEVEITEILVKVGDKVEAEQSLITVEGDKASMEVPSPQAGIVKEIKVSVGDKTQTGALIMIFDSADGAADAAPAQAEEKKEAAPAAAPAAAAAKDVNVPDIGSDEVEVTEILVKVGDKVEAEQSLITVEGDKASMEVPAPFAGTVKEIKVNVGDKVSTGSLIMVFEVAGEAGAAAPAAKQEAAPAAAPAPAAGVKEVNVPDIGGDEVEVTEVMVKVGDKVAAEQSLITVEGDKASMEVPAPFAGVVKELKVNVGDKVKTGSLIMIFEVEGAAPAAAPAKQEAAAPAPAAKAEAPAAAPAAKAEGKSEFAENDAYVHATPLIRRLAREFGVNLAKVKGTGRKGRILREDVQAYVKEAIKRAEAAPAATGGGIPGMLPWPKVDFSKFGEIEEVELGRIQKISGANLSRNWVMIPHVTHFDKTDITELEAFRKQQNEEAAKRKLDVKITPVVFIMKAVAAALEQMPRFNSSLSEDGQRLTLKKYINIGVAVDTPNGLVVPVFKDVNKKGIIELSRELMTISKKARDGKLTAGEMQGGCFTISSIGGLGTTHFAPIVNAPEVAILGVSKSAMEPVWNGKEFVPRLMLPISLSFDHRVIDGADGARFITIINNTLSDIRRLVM
UniProt P22524: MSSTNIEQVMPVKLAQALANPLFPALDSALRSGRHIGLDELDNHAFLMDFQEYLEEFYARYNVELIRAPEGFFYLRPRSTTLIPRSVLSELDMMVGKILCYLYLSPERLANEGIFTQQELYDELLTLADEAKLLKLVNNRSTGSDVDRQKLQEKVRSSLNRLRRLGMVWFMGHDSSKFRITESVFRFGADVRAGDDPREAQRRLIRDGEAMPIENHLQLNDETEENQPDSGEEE
UniProt P0A8T7: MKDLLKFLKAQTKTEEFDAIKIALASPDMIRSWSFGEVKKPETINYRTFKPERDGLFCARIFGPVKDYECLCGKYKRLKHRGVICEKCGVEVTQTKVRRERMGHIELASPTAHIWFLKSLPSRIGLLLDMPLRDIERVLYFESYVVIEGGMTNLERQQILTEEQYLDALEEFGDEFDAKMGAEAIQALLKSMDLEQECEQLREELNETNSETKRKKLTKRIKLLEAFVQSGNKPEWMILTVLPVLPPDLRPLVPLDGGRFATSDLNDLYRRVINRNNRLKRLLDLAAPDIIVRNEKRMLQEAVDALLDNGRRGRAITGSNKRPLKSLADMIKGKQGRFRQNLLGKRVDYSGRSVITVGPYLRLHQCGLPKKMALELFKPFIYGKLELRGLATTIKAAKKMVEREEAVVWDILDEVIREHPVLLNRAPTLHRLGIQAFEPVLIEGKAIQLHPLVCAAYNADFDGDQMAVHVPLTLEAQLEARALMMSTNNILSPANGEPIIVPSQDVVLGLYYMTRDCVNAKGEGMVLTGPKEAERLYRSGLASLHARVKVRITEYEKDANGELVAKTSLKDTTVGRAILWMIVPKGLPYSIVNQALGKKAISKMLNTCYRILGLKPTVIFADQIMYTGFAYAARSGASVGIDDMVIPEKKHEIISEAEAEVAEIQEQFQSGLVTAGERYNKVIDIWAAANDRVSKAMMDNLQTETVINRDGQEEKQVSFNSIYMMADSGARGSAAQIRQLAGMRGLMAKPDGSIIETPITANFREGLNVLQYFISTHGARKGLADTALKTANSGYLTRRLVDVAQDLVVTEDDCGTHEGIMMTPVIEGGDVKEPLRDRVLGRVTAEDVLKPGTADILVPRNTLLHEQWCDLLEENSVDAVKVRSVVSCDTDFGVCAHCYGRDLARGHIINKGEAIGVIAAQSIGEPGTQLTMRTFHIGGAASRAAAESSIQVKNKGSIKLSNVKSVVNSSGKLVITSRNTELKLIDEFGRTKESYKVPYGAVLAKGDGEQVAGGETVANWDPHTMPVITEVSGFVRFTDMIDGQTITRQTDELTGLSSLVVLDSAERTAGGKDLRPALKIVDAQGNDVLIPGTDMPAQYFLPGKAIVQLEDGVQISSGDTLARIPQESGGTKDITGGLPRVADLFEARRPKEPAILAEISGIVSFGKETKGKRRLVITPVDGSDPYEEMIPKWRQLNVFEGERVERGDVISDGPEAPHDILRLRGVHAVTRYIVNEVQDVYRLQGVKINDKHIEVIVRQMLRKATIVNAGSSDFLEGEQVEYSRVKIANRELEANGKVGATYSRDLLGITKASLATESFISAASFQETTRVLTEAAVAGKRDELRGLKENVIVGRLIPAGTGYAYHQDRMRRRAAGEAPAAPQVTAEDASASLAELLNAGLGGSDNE
UniProt P0A7Z4: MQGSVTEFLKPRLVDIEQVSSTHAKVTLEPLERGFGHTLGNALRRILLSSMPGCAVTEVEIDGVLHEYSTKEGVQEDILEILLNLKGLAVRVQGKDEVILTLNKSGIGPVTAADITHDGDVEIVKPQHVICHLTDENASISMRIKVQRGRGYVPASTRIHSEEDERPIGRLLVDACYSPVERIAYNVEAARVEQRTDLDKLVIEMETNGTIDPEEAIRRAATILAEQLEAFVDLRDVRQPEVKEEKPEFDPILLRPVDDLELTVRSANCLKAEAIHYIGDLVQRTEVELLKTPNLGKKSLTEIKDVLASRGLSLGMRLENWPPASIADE
UniProt P0A9P0: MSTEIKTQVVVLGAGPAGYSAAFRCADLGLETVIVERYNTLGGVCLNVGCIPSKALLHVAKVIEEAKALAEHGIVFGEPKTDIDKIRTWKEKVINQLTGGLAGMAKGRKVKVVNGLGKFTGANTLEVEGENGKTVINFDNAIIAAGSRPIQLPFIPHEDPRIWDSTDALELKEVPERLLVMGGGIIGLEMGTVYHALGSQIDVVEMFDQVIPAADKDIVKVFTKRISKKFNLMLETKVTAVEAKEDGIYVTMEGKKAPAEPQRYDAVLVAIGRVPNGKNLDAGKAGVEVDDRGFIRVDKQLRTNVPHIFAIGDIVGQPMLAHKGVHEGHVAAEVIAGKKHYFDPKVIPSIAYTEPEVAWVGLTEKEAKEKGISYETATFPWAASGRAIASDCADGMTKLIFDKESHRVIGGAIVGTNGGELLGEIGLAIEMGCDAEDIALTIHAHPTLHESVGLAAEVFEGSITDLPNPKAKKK
UniProt P0ACF0: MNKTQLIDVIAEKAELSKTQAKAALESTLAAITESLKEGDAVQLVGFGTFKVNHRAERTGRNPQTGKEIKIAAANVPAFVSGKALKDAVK
UniProt P60240: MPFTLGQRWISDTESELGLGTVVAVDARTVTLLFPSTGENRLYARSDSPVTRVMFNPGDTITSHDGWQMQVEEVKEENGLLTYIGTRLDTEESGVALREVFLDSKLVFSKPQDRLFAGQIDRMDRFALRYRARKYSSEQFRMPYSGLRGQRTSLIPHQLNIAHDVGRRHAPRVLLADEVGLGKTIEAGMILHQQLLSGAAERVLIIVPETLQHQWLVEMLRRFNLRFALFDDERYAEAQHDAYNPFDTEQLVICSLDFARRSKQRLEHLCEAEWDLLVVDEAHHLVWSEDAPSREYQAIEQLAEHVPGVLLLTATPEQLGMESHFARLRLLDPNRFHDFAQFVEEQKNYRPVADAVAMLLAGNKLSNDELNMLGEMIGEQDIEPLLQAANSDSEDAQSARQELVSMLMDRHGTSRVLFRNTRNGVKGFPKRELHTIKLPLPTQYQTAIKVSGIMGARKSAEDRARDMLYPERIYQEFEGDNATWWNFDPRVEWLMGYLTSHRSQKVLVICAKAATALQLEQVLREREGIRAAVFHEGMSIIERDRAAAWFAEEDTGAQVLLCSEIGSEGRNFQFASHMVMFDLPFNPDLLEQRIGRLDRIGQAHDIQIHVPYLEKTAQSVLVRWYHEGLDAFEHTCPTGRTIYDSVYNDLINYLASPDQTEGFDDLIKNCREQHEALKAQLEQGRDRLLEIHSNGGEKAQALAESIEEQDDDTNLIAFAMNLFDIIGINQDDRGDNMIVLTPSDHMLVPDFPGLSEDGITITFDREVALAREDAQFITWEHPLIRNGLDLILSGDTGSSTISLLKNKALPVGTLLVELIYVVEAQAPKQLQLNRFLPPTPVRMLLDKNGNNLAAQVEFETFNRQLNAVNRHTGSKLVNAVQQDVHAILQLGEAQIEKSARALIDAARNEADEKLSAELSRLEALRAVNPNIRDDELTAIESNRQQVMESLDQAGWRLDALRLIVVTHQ
UniProt P0A9X4: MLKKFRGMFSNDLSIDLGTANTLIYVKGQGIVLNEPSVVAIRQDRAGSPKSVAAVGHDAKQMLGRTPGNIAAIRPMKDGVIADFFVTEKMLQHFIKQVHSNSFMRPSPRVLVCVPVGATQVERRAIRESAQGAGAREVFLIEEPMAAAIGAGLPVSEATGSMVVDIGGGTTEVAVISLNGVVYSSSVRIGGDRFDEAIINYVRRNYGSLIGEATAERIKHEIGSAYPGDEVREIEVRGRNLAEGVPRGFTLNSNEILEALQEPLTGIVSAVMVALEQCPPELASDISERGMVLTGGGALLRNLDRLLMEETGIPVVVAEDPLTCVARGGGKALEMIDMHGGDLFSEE
UniProt P0A6A8: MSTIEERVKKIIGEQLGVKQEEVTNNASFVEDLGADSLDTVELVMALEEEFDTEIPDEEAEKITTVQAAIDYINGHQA
UniProt P0A717: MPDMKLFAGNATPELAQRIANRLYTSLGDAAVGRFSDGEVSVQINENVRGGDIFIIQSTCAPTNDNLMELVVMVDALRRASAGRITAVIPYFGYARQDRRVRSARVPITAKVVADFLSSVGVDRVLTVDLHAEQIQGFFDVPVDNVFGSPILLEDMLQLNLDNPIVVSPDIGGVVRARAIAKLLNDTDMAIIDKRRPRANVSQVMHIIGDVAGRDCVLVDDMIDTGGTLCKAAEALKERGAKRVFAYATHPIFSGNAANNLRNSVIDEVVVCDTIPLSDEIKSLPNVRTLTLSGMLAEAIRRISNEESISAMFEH

How the values were obtained:
[1] = molecular target: GroEL (E. coli K12 (endogenous in the lysate)) (UniProt P0A6F5); assay: cross-linking; BS3 or DSSO (0.75 mM, 2 h on ice) in the single SEC fractions of E. coli K12 lysate, fractions pooled, LC-MS; PPIs at 1% heteromeric PPI-FDR
[2] = molecular target: T1, sucA (E. coli K12 (endogenous in the lysate)) (UniProt P0AFG3); assay: SEC; E. coli K12 lysate on a BioSep SEC-S4000 column at 4 °C, 44 fractions; elution profile of each protein by label-free quantitative MS (iBAQ); coelution
T1 sequence: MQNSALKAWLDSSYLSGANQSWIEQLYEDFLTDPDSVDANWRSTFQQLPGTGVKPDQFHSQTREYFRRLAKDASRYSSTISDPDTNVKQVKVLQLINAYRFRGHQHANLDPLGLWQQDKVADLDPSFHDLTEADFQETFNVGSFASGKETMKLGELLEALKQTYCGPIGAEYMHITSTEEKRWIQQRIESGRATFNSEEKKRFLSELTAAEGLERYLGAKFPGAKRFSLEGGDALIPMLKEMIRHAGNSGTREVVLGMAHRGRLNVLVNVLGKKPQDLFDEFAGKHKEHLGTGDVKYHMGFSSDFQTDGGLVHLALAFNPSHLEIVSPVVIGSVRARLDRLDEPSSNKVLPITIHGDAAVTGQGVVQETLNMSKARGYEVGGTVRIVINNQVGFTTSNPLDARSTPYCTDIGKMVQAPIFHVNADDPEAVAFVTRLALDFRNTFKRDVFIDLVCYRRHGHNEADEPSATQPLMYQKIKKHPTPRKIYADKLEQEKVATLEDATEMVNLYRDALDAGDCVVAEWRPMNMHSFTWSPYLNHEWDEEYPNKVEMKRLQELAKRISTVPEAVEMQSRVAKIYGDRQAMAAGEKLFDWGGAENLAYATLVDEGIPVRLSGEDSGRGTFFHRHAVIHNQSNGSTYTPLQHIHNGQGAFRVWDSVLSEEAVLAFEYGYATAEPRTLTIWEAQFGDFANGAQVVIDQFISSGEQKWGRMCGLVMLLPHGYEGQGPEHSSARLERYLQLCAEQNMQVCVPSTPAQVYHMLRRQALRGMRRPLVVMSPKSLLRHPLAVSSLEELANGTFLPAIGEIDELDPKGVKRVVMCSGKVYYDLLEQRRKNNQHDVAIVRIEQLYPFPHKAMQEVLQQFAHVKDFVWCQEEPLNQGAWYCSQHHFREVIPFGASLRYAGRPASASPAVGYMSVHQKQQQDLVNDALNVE

[3] = molecular target: T2, sucB (E. coli K12 (endogenous in the lysate)) (UniProt P0AFG6); assay: as above
T2 sequence: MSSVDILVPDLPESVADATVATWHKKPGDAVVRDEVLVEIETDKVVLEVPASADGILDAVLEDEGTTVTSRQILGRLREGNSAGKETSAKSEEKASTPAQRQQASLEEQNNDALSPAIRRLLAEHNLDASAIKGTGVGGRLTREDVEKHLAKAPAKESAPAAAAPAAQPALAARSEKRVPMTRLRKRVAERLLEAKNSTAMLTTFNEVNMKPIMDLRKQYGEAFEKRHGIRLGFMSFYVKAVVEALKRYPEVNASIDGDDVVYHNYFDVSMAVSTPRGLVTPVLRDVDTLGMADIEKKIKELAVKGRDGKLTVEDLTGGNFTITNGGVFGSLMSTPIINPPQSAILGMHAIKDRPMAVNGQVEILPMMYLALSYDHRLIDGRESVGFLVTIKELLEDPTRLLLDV

[4] = molecular target: aceE (E. coli K12 (endogenous in the lysate)) (UniProt P0AFG8); assay: as above
[5] = molecular target: aceF (E. coli K12 (endogenous in the lysate)) (UniProt P06959); assay: as above
[6] = molecular target: T1, sucA (E. coli K12 (endogenous in the lysate)); assay: cross-linking; BS3 or DSSO (0.75 mM, 2 h on ice) in the single SEC fractions of E. coli K12 lysate, fractions pooled, LC-MS; PPIs at 1% heteromeric PPI-FDR
[7] = molecular target: T2, sucB (E. coli K12 (endogenous in the lysate)); assay: as above
[8] = molecular target: aceE (E. coli K12 (endogenous in the lysate)) (UniProt P0AFG8); assay: as above
[9] = molecular target: aceF (E. coli K12 (endogenous in the lysate)) (UniProt P06959); assay: as above
[10] = molecular target: T3, MukBEF complex (E. coli K12 (endogenous in the lysate)) (UniProt P22523+P22524+P60293); assay: as above
[11] = molecular target: rpoB (E. coli K12 (endogenous in the lysate)) (UniProt P0A8V2); assay: cross-linking; sulfo-SDA (50-1000 µM, 2 h on ice, UV 365 nm) on the TEV eluates of the YacL-SPA, RpoB-SPA and NusG-SPA enrichments; LC-MS; 2% residue pair FDR, 5% PPI FDR
[12] = molecular target: rpoC (E. coli K12 (endogenous in the lysate)) (UniProt P0A8T7); assay: as above
RpoB-SPA (E. coli K12) = RpoB-SPA (E. coli K12) (UniProt P0A8V2); assay: as above
[13] = molecular target: rpoC (E. coli K12 (endogenous in the lysate)) (UniProt P0A8T7); assay: cross-linking; BS3 or DSSO (0.75 mM, 2 h on ice) in the single SEC fractions of E. coli K12 lysate, fractions pooled, LC-MS; PPIs at 1% heteromeric PPI-FDR
[14] = molecular target: MukBEF (E. coli K12 (endogenous in BW25113)) (UniProt P22523+P22524+P60293); assay: cross-linking; BS3 or DSSO (0.75 mM, 2 h on ice) in each of 44 SEC fractions of E. coli K12 BW25113 lysate, fractions pooled, digested, SCX and hSAX fractionation, LC-MS; PPIs at 1% heteromeric decoy-based PPI-FDR
[15] = molecular target: T3, MukBEF complex (E. coli K12 (endogenous in the lysate)); assay: SEC; E. coli K12 lysate on a BioSep SEC-S4000 column at 4 °C, 44 fractions; elution profile of each protein by label-free quantitative MS (iBAQ); coelution

For rpoA (from UniProt P0A7Z4 1-329), the binding [1] was “binds”.

With lpdA (from UniProt P0A9P0 1-474) the binding [2] was “binds”, the binding [3] was “binds” and the binding [4] was “binds”. For the same substance, the binding [5] was “binds”, the binding [6] was “binds” and the binding [7] was “binds”. The binding [8] was “binds” and the binding [9] was “binds”.

With hupA (from UniProt P0ACF0 1-90) the binding [10] was “binds”.

For aceF (from UniProt P06959 1-630), the binding [8] was “binds”.

With RapA (from UniProt P60240 1-968) the binding [11] was “binds”, the binding [12] was “binds” and the binding (RpoB-SPA (E. coli K12)) was “binds”. For the same substance, the binding [13] was “binds”.

For mreB (from UniProt P0A9X4 1-347), the binding [1] was “binds”.

For “acyl carrier protein (from UniProt P0A6A8 1-78)”, the binding [14] was “binds”.

For AcpP (from UniProt P0A6A8 1-78), the binding [15] was “binds”.

In the case of prS (from UniProt P0A717 1-315), the binding [12] was “binds”.
